The list shows a part of the results.

Amino acid sequences for entries named in this document (tags omitted). A change or cut given only in a name is not applied to a line headed by its entry.
UniProt O14828: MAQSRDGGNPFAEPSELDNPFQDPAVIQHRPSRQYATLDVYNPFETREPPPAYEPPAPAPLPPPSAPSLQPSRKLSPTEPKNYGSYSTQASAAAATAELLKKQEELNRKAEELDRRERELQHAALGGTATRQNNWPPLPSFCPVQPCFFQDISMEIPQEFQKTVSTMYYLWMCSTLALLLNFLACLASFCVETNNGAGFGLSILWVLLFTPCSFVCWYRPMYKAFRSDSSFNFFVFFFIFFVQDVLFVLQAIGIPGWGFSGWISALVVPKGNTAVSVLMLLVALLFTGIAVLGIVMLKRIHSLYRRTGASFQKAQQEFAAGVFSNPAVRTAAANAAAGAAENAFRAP
UniProt O60613, whole entry, looked up: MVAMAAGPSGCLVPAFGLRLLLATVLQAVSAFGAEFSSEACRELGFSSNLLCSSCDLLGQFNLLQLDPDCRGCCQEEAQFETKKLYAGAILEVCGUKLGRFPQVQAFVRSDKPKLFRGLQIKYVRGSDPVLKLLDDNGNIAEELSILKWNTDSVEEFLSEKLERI
UniProt Q8WU76: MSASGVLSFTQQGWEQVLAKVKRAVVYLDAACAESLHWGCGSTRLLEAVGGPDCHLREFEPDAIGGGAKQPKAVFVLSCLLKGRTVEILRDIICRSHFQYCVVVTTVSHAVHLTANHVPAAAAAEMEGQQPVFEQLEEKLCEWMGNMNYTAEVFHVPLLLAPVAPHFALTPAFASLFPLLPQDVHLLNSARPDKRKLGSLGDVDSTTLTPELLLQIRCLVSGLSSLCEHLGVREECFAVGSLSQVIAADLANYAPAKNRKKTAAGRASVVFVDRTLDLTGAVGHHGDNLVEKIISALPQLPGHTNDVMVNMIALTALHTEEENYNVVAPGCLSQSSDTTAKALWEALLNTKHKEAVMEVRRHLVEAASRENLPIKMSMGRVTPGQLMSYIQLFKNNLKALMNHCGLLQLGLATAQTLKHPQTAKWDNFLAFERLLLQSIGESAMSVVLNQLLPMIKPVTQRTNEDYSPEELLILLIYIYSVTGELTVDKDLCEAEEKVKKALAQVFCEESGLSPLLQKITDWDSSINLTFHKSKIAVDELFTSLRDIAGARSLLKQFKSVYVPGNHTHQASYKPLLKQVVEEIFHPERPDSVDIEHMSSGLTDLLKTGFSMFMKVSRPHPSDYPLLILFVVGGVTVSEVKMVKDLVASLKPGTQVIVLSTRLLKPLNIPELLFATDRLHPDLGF
UniProt Q9NVA2: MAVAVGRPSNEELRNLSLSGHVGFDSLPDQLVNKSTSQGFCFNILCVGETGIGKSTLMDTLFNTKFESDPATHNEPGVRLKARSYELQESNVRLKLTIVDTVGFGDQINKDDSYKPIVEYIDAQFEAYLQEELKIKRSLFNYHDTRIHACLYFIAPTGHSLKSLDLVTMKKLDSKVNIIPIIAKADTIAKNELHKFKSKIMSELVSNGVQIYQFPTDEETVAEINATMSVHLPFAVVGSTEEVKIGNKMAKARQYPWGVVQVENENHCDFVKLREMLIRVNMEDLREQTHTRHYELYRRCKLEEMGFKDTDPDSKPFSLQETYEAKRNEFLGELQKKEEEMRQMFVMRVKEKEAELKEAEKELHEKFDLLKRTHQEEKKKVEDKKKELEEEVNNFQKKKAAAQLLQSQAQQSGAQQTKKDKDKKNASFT
UniProt Q8WTV0: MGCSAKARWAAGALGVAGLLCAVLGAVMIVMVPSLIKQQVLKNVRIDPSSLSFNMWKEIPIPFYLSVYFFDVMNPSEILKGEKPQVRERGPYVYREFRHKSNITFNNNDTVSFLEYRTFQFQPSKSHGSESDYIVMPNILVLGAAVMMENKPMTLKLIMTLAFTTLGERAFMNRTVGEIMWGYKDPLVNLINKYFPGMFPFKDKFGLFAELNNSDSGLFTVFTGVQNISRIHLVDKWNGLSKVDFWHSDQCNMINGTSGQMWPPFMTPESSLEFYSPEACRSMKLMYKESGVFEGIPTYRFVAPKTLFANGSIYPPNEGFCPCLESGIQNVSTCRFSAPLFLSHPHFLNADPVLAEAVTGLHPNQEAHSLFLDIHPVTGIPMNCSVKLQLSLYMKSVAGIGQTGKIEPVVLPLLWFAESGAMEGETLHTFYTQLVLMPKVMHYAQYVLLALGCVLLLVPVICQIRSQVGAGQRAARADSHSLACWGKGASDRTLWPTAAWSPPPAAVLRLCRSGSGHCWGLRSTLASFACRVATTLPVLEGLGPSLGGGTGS
UniProt P21912: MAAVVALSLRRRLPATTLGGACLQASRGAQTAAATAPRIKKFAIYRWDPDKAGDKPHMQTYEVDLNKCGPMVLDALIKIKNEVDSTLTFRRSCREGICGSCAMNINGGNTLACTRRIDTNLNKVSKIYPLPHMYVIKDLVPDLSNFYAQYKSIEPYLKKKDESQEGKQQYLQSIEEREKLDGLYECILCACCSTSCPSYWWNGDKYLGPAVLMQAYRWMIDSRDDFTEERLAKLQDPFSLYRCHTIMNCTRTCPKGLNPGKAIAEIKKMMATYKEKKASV
UniProt Q14160: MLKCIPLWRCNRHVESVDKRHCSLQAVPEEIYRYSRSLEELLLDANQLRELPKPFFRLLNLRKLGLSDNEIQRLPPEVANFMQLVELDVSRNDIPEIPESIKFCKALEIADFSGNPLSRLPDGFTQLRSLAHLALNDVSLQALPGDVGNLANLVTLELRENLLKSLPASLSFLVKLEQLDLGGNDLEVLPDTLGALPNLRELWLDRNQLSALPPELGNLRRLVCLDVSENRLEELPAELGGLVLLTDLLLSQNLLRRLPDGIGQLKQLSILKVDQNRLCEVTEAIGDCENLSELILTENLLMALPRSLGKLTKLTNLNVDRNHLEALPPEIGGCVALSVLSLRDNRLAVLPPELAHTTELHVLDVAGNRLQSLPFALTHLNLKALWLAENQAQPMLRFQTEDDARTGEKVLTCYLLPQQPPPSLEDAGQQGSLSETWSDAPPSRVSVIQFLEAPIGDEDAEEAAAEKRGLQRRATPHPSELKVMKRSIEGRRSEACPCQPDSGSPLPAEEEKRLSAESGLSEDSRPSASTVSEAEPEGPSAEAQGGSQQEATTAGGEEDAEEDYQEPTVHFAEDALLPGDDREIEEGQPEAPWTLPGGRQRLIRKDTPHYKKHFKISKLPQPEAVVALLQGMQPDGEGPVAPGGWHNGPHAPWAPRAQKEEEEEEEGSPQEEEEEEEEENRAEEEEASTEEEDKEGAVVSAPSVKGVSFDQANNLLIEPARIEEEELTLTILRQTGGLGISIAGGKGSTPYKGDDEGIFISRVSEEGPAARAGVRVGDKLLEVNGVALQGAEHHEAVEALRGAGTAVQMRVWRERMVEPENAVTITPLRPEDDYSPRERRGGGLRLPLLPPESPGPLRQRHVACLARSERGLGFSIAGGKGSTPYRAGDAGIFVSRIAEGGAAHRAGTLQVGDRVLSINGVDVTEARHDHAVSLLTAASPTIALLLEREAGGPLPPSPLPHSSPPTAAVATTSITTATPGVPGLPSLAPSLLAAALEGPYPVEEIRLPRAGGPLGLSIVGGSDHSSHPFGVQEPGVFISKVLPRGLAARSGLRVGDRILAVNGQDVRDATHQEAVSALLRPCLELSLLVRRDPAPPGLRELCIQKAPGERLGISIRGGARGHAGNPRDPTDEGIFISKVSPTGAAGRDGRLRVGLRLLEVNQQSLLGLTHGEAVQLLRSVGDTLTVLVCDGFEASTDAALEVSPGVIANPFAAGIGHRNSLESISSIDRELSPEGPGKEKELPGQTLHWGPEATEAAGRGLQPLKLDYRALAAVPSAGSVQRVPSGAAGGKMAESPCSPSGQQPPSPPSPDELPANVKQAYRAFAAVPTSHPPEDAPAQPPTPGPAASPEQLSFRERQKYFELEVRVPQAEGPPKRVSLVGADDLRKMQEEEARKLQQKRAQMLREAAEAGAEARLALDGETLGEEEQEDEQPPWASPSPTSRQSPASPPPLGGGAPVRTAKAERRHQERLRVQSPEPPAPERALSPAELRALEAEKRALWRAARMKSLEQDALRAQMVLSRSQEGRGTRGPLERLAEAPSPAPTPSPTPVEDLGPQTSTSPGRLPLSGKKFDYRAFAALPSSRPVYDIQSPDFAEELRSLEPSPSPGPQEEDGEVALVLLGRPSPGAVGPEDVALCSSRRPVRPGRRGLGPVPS
UniProt Q9BRK5: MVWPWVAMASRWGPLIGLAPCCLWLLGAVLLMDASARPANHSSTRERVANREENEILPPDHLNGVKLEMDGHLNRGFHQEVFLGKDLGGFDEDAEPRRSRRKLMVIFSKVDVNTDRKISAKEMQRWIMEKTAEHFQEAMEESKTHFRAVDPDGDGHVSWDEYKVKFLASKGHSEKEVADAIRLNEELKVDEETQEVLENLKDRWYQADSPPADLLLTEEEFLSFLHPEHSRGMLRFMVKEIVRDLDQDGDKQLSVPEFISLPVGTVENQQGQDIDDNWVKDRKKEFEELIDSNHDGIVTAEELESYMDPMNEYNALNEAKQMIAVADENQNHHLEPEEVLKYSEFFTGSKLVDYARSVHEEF
UniProt Q8WVM8, whole entry, looked up: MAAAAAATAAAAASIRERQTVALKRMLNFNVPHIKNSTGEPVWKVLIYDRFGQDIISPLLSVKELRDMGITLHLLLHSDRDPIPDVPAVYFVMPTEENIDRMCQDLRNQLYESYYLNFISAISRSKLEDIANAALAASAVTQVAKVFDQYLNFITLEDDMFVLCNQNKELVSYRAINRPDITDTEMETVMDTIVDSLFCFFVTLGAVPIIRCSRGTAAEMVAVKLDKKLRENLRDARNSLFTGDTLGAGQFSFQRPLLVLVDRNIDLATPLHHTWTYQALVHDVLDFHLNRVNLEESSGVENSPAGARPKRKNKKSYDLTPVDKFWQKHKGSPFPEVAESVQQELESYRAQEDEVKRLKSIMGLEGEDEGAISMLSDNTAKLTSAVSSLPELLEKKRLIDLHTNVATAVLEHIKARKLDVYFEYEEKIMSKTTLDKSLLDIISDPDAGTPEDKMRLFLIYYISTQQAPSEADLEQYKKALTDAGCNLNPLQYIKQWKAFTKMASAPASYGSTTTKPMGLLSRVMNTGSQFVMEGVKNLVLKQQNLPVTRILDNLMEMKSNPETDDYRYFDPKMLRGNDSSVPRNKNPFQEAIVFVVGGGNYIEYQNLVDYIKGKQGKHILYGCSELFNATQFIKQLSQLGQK
UniProt O94855: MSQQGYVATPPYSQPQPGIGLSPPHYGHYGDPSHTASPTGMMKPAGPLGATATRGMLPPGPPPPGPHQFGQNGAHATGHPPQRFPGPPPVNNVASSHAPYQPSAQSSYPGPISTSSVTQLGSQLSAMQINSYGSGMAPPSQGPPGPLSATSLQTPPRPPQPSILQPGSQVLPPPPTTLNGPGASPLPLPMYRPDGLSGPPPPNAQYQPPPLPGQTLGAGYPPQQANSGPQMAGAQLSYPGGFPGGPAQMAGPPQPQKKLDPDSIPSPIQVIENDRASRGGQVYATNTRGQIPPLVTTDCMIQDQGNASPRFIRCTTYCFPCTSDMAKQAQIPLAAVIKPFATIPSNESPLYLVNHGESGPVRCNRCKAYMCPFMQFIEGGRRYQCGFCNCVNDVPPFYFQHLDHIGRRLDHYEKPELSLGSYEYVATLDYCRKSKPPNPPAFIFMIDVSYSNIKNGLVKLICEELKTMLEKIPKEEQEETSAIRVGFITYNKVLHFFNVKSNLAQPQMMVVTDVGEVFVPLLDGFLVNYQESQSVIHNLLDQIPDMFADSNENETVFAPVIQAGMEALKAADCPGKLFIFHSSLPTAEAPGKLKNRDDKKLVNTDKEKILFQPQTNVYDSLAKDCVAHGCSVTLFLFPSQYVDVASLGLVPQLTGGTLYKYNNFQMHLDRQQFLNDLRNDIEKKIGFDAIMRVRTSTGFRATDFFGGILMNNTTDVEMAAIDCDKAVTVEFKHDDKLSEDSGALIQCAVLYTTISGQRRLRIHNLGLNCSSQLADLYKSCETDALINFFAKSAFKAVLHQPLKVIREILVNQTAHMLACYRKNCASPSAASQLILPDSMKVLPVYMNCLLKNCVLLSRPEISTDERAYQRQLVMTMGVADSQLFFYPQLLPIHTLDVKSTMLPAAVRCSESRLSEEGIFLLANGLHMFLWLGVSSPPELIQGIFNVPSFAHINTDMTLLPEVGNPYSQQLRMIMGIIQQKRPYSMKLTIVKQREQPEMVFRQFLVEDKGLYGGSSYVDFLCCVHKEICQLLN
UniProt Q9UHR5: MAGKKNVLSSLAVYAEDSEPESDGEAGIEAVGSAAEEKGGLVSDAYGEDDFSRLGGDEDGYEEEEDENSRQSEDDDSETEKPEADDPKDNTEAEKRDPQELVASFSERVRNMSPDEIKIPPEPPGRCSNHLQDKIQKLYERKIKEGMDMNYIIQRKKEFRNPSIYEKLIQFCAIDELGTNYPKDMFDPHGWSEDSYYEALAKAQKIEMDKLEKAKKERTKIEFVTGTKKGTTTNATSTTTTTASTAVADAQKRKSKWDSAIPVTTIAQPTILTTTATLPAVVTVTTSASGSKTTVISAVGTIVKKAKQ

Compound in the first assay: C/C(=N\NC(=O)C1=CC(=CC=C1)S(=O)(=O)N2CCOCC2)/C3=C(C=CC(=C3)Cl)O
The assay is described as follows: log2 fold change, soluble protein after heating vs DMSO (PISA); higher = thermal stabilisation; K562 lysate, 10 uM; active = over 0.2 and 3.5 SD of the protein, either way, in both replicates (recomputed). The method in brief:
(§1)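 To prepare the extract, K562 pellets were dounce-homogenised in PBS pH 7.4 with 1 mM MgCl2, giving crude material at 1 mg/mL protein. This was treated with 10 μM compound for 30 min, then heated in aliquots for 3 min over 48°C-58°C before pooling and addition of NP-40 to 0.5% at 4°C. Centrifugation at 21,000xg for 90 min left soluble protein in the supernatant, which TMTpro 16plex LC-MS/MS quantified with equalised channel sums. Results are log-two fold changes in thermal stability compared with solvent controls, from duplicates.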
On to SCAMP3 isoform 2 (UniProt O14828), for which the log2 fold change is inactive: 0.
The same measure, in the same setting: as for SELENOF (UniProt O60613), the figure is inactive: 0.017; as for SASS6 (UniProt Q6UVJ0), inactive: 0.016.
The same measure, in the same setting: then SCFD2 (UniProt Q8WU76), with inactive: -0.008; and SEPTIN11 isoform 2 (UniProt Q9NVA2), with inactive: -0.051.
Still for that read-out and setting: then SCLT1 (UniProt Q96NL6), with inactive: -0.063; and SCARB1 isoform 2 (UniProt Q8WTV0), with inactive: -0.022.
Regarding SENP5 (UniProt Q96HI0), the log2 fold change is inactive: -0.053.
SDHB (UniProt P21912): the log2 fold change is inactive: 0.165.
The same measure, in the same setting: as for SCML2 (UniProt Q9UQR0), the figure is inactive: 0.038.

Compound in another assay: C1=CC(=CC=C1C2=NC3=C(N2)C=C(C=C3)C(=O)N)OC4=CC=C(C=C4)Cl
The assay is described as above. The method, boiled down:
as §1
For SCRIB (UniProt Q14160), the log2 fold change was inactive: -0.015.
Still for that read-out and setting: then SEC23A (UniProt Q15436), with inactive: 0.036.
The same measure, in the same setting: then SEPTIN9 (UniProt Q9UHD8), with inactive: 0.001; and SEMA4B (UniProt Q9NPR2), with inactive: -0.112.
Still for that read-out and setting: as for SDF4 (UniProt Q9BRK5), the figure is inactive: -0.014.
In the case of SELENOS (UniProt Q9BQE4), the log2 fold change was inactive: 0.
On the same count and under the same terms, then SCFD1 (UniProt Q8WVM8), with inactive: 0.017; and SEC24D isoform 2 (UniProt O94855), with inactive: 0.012; and SELENBP1 isoform 4 (UniProt Q13228), with inactive: 0.023.
In the case of SEC61A1 (UniProt P61619), the log2 fold change was inactive: 0.075.
On the same count and under the same terms, as for SEC24C (UniProt P53992), the figure is inactive: 0.016; as for SAP30BP (UniProt Q9UHR5), inactive: 0.025.

The record behind these values is the supplement of paper PMC10849652.
